# Source: PubChem BioAssay AID1439 (NMMLSC, 2008)
# Chains of the proteins cited; added tags and fusions are not shown.
# UniProt P09471, whole entry, looked up: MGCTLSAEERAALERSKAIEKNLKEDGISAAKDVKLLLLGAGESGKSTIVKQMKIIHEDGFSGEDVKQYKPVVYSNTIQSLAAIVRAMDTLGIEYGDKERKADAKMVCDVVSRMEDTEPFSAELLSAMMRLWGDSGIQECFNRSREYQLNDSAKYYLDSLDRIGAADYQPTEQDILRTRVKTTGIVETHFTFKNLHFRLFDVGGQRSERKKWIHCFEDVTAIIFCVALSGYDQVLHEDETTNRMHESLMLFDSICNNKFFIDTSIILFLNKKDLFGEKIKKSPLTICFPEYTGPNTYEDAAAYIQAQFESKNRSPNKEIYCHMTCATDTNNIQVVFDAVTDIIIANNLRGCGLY
# Among all 220,000 compounds or so, about 770 (0.35%) were called active. The shares of active, inactive and inconclusive entries below differ from those in the screen. No stated cut-off is given here; in the data, active means binding response below about 49% or above about 150%; inconclusive means no clear call, values can overlap the other calls; inactive means in between.
# Biological target: Guanine nucleotide-binding protein G(o) subunit alpha (Homo sapiens) (UniProt P09471)
# Assay: RGS7-Galphao binding modulators, primary screen, biochemical, multiplexed bead flow cytometry (AID 1439);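 further: fluorescent Galphao held in activated GDP-AlF4 state binding bead-coupled RGS7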
# Conditions: at 10 µM, actives lie on both sides
row,SMILES,binding response (% of control)
1,C[n+]1cccc2c(Br)ccc([O-])c21,inconclusive: -90.6%
2,Cc1cc(C)c2cc(CN(CCO)C(=O)NC3CCCCC3)c(=O)[nH]c2c1,inconclusive: 77.2%
3,O=C(Nc1cccnc1)C1CCC(CNS(=O)(=O)c2cccc3nsnc23)CC1 (configuration not stated),inconclusive: 56.3%
4,COc1ccc(NC(=O)CN2CCC(C(N)=O)(N3CCCCC3)CC2)c(OC)c1,inconclusive: 107%
5,Cc1ccc(C)c(Nc2cc(C(=O)NCc3cccnc3)c3ccccc3n2)c1,inconclusive: 82.2%
6,COc1ccc2[nH]c3c(N4CCc5ccccc5C4)ncnc3c2c1,inconclusive: 105%
7,COc1ccc(N=C(C)c2sc3ccccc3c2O)cc1,inconclusive: 103%
8,CC1(C)SC(=S)N(/N=C/c2cccnc2)C1N(O)C(=O)Nc1ccccc1 (configuration not stated),inconclusive: 91.4%
9,O=C(CNc1cccc2ccccc12)N/N=C/c1ccc[nH]1,inconclusive: 84.6%
10,Cc1ccc(CSc2nnc(-c3ccccn3)n2N)cc1,inconclusive: 340%
11,O=C(N/N=C/c1cc(Cl)ccc1O)c1ccncc1,inconclusive: 60.5%
12,COc1cc(C(=O)Nc2ccc(C#N)cc2)c([N+](=O)[O-])cc1OC,inactive: 97.7%
13,COC(=O)CNC(=O)CN1c2cccc3cccc(c23)S1(=O)=O,inactive: 95.3%
14,Nc1nonc1-n1nnc(C(=O)N/N=C/c2ccc(O)cc2)c1COc1ccc(F)cc1,inconclusive: 112%
15,CC(C)c1ccccc1NC(=S)N1CCN(S(=O)(=O)c2cccs2)CC1,inconclusive: 86.2%
16,Cn1nc(C(F)(F)F)c(-c2ccc(F)cc2)c1NC(=O)c1ccco1,inconclusive: 613%
17,CCN1CCN(C(=O)C23CCC(C)(C(=O)C2Br)C3(C)C)CC1 (configuration not stated),inconclusive: 83%
18,CSc1cccc(NC(=O)CN(C2CCCCC2)S(C)(=O)=O)c1,inactive: 95.1%
19,COc1ccc(N2C(=O)c3ccccc3NC2c2ccc(OC)c(Cn3cc([N+](=O)[O-])cn3)c2)cc1 (configuration not stated),inconclusive: 132%
20,COc1ccc(Cc2cc(-c3ccc(F)cc3)n[nH]c2=O)cc1,inconclusive: 112%
21,O=C(O)c1ccccc1SCC(=O)N1CCc2ccccc21,inconclusive: 95.3%
22,CN(CC(=O)O)c1ccc(C(F)(F)F)cc1[N+](=O)[O-],inactive: 98.4%
23,COc1ccc(OCC(=O)N(Cc2ccco2)C2CCS(=O)(=O)C2)cc1 (configuration not stated),inconclusive: 59.5%

row,SMILES,binding response (% of control)
1,COc1ccc(CCNC(=O)C2CC(c3ccc(C(F)(F)F)cc3)=NO2)cc1 (configuration not stated),inconclusive: 103%
2,CCN(CC)c1cc(C)c(C#N)c2nc3ccccc3n12,inconclusive: 26.1%
3,CC(Oc1ccccc1)C(=O)Nc1nnc(C2CCCCC2)s1 (configuration not stated),inactive: 108%
4,Cc1cc(C)c(S(=O)(=O)Cc2ccccc2)c(=O)[nH]1,inactive: 108%
5,CCCCN1Cc2c(nc3cc(-c4ccccc4)[nH]n3c2=O)C1=O,inconclusive: 23.1%
6,O=c1c(S(=O)(=O)c2ccc(Cl)cc2)cn(Cc2ccccc2)c2ccc(F)cc12,inactive: 95.5%
7,CCOC(=O)c1ccc(NC(=O)C2(c3ccc(Cl)cc3)CCCC2)cc1,inactive: 106%
8,COC(=O)c1ccc(/C=N/N2CCN(Cc3ccccc3Cl)CC2)cc1,inconclusive: 52.6%
9,Cc1ccccc1OCCNc1cc(N2CC(C)NC(C)C2)ccc1[N+](=O)[O-] (configuration not stated),inconclusive: 93.5%
10,COc1cc(/C=C2\SC(=O)N(CCN)C2=O)ccc1OS(=O)(=O)c1cc(C)ccc1C,inconclusive: 103%
11,Cc1ccc(S(=O)(=O)c2nc(-c3ccccc3)oc2NCCCN2CCOCC2)cc1,inconclusive: 108%
12,CC(Oc1ccc(Cl)cc1Cl)c1ccn[nH]1 (configuration not stated),inactive: 94.5%
13,O=C1C2C(c3ccccc3)CC=CC2[C@H](c2ccc3ccccc3c2)N1Cc1ccccc1 (some centres not stated),inconclusive: 102%
14,COc1ccc(N2CC(NC(=O)NCCC(C)C)CC2=O)cc1 (configuration not stated),inactive: 102%
15,COc1ccc(NC(C)=O)cc1S(=O)(=O)Nc1ccc(C(=O)N2CCCC2)cc1,inconclusive: 131%
16,O=C(O)C(=O)/C(=C\c1ccc(Cl)cc1)c1ccc2ccccc2n1,inconclusive: 84.9%
17,Cc1cc(C)c2oc(C(=O)Nc3ccc(S(=O)(=O)Nc4nccs4)cc3)cc(=O)c2c1,inconclusive: 109%
18,Cc1nc([N+](=O)[O-])cn1CC(O)c1ccc(Cl)cc1 (configuration not stated),inconclusive: 126%
19,CN1C2=NCCN2C(=O)c2cc(Cl)ccc21,inconclusive: 98.7%
20,O=C(O)c1ccccc1Sc1ncnc2sc3c(c12)CCC3,inconclusive: 99.4%
21,COc1ccc(OC)c(/C=N/NC(=O)c2[nH]ncc2Br)c1,inconclusive: 96%
22,Cn1cccc1/C=C1\SC(=Nc2cccc(O)c2)NC1=O,inconclusive: 90%
23,Cc1cc(C)n(-c2nc(C(F)(F)F)nc3ccccc23)n1,inconclusive: 111%

# 4 compounds picked at random from those above:
row,SMILES,binding response (% of control)
21,COc1ccc(OC)c(/C=N/NC(=O)c2[nH]ncc2Br)c1,inconclusive: 96%
3,CC(Oc1ccccc1)C(=O)Nc1nnc(C2CCCCC2)s1 (configuration not stated),inactive: 108%
20,O=C(O)c1ccccc1Sc1ncnc2sc3c(c12)CCC3,inconclusive: 99.4%
6,O=c1c(S(=O)(=O)c2ccc(Cl)cc2)cn(Cc2ccccc2)c2ccc(F)cc12,inactive: 95.5%

# Further compounds:

row,SMILES,binding response (% of control)
1,CS(=O)(=O)N1N=C(c2cccs2)CC1c1ccc(F)cc1 (configuration not stated),inconclusive: 581%
2,CSc1nnc(-c2ccc(C(F)(F)F)nc2C)o1,inconclusive: 74.1%
3,CCCc1cc(=O)c2ccc(OC/C(C)=N/O)cc2o1,inconclusive: 96.4%
4,COc1cccc(Cn2cccc(NC(=O)Nc3cccc(C#N)c3)c2=O)c1,inconclusive: 101%
5,COc1ccc(-n2nc(C(=O)NCC(=O)NCC3COc4ccccc4O3)c3ccccc3c2=O)c(OC)c1 (configuration not stated),inconclusive: 93.5%
6,COC(=O)Cn1c(O)c(N=NC(=O)OC)c2ccccc21,inconclusive: 107%
7,CCN(CC)c1ccc(/C=N/NC(=O)c2cccc(N3CCCC3=O)c2)cc1,inactive: 95.4%
8,S=C(Nc1ccccc1)c1ccccn1,inconclusive: 98.5%
9,Cc1ccc(Cl)cc1NC(=O)N[C@@H](CC(C)C)C(=O)O,inconclusive: 112%
10,CS(=O)(=O)N1CCc2cc(C(=O)NC3CC3)ccc21,inconclusive: 89.8%
11,CN1Cc2c(N3CCOCC3)nc(SCCC#N)c(C#N)c2CC1(C)C,inconclusive: 109%
12,O=C(CCn1cnnn1)Nc1ccccc1,inactive: 106%
13,Cc1nc(S(=O)(=O)Nc2ccc3c(c2)OCCO3)cn1C,inconclusive: 41.1%
14,CC[n+]1c(/C=C2/C=C(C)CC(C)(C)C2)sc2ccc(OC)cc21,active: 163% [activator]
15,NCCSc1c(-c2ccc(Cl)cc2)[nH]c2ccccc12,inconclusive: 199%
16,O=C(N/N=C/c1cc2c(cc1Br)OCO2)c1ccccn1,inconclusive: 32.3%
17,CC(C)N(C)S(=O)(=O)c1ccc(Cl)c(C(=O)O)c1,inconclusive: 113%
18,Cc1ccc(NNC(=O)C2CCC2)cc1C,inconclusive: -64.1%
19,O=C(OCn1nnc2ccccc2c1=O)c1ccc(Br)o1,inactive: 104%
20,COc1cccc(/C=N/NC(=O)c2ccc(=O)[nH]n2)c1O,inconclusive: 59.2%
21,Cc1cccc(C(=O)Nc2ccc(N3CCN(S(C)(=O)=O)CC3)cc2)c1,inactive: 93.4%
22,CC(=O)N=C1SC2CS(=O)(=O)CC2N1Cc1ccc(C)cc1 (configuration not stated),inconclusive: 103%
23,CN1C(=S)SC(/[N+]([O-])=C\c2ccccc2F)C1(C)C (configuration not stated),inconclusive: 115%

row,SMILES,binding response (% of control)
1,COc1ccc(C(=O)Nc2nc3cc4c(cc3s2)OCO4)c(OC)c1,inconclusive: 72.9%
2,O=C(Cn1cncn1)c1ccc(F)cc1F,inactive: 97.4%
3,Nc1cc(S(=O)(=O)Nc2cc(Cl)ccc2Cl)ccc1N1CCCC1,inconclusive: 100%
4,CC1=C(C(=O)OCC2CCCO2)C(c2ccsc2)C2=C(CC(C)(C)CC2=O)N1 (configuration not stated),inactive: 98.3%
5,O=C1CC(Nc2cc(=O)[nH]c(=O)[nH]2)C(=O)N1c1ccccc1Cl (configuration not stated),inconclusive: 111%
6,COc1ccc2c(=O)cc(-c3ccccc3F)oc2c1,inconclusive: 65.4%
7,CCn1c(SCC(=O)OCc2ccccc2)nc2c1c(=O)n(C)c(=O)n2C,inactive: 98.7%
8,CC1CCCN(C(=O)C2CCN(CCCc3ccccc3)CC2)C1 (configuration not stated),inactive: 97.9%
9,O=C(NCc1nc(-c2ccc(C(F)(F)F)cc2)no1)Nc1ccc(F)cc1F,inconclusive: 89.2%
10,O=C(Cn1cc(C(F)(F)F)ccc1=O)Nc1ccccc1,inconclusive: 106%
11,CC1CCN(S(=O)(=O)c2ccc(S(=O)(=O)NCc3ccccc3)cc2)CC1,inactive: 97%
12,COc1ccccc1NC(=O)N1CCc2c([nH]c3ccccc23)C1C(F)(F)F (configuration not stated),inconclusive: 97%
13,CCC1=C(OC(=O)N(CC)CC)N2C(=O)OC(=NCC3CC3)[C@]2(C)[C@H]2C1=CC[C@H]1C(=O)N(C)C(=O)[C@H]12,inconclusive: 127%
14,NC(=O)c1ccc2c(=O)n3c(-c4cc(Cl)c(N)c(Cl)c4)csc3nc2c1,inconclusive: 100%
15,O=C(COC(=O)/C=C/c1cccc(F)c1)Nc1ccccc1,inconclusive: 103%
16,NC(=O)C1(c2ccccc2)CCC(=O)N1c1ccccc1 (configuration not stated),inconclusive: -321%
17,Cc1ccc(C(=O)COC(=O)c2cn3ccccc3n2)cc1,inconclusive: 115%
18,Cn1nc(C(F)(F)F)c(CO)c1Sc1ccc(F)cc1,inconclusive: 108%
19,O=C(N/C(=C/c1cccnc1)C(=O)N1CCOCC1)c1ccccc1Cl,inconclusive: 104%
20,CS/C(N)=N/N=C/c1cc(C)ccc1O,inconclusive: 97.5%
21,COc1ccc(Cl)cc1C(=O)Nc1ccc(S(N)(=O)=O)cc1,inconclusive: 80.2%
22,O=C(COc1ncnc2ccccc12)N1CCN(S(=O)(=O)c2ccccc2)CC1,inactive: 99.1%
23,COc1cc(C(=O)Nc2ccc(C)cn2)c([N+](=O)[O-])cc1OC,inconclusive: 99.4%
